Reference: PubChem BioAssay AID1347076 (National Center for Advancing Translational Sciences (NCATS), 2019)
The campaign covered roughly 400,000 compounds. About 13,000 (3.2%) were called active. The inconclusive results got no clear call from the source; some entries with a clear call stand among them for comparison. Calls come from the whole dose curve; as a rule, active = well fitted cell-killing curve with a large enough effect; inconclusive = small, poorly fitted or top-dose-only effect, or effect the other way; inactive = flat fitted curve, though single readings scatter. A potency beside an inconclusive call is a rough fit, not a confirmed value.

Assay: qHTS assay for MDR1-selective chemotherapeutics: Primary screen using the drug-selected MDR subline cells KB-V1; note: nearly all actives have a fitted effect of over 60% in size
Conditions: KB-V1 MDR cells viability, CellTiter-Glo, 72 h; activity change, negative = cytotoxicity: at 46.1 µM (top of the series)
Procedure, shortened: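 KB-V1 MDR subline cells in DMEM (phenol-red free, 10% FBS) exposed to compounds in qHTS concentration series for 72 h at 37 degrees C. Viability read by CellTiter-Glo luminescence; concentration-effect curves fitted after normalization and correction.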
% is set by controls: 0 for no effect and ±100 for the full control effect; potency is the fitted concentration of half-maximal effect.

Structure (SMILES) | Potency | activity change, negative = cytotoxicity
CCOC(=O)C(=CNc1ccc(Oc2cncc(Cl)c2)nc1)C(=O)OCC | inconclusive: 3.66 µM [cytotoxic, partial curve] | 
CC(=O)Nc1cc(C(=O)c2ccccc2)ccc1N1CCOCC1 | inconclusive: 29.1 µM [cytotoxic, single point] | 
CCN(CC)C(=O)c1sc2c(c1C)c(=O)n(Cc1ccccc1)c(=O)n2Cc1ccc(Cl)cc1 | inconclusive: 13 µM [cytotoxic, partial curve, poor fit] | 
CCOC(=O)Cc1csc(NC(=O)CSc2nc(-c3ccccc3)c(C#N)c(=O)[nH]2)n1 | inconclusive: 29.1 µM [rising, single point] | 
O=C1N[C@@H](Cc2ccccc2)COC(=O)[C@@H](Cc2ccc(F)cc2)CC/C=C/C[C@@H]1CC(=O)N(CCO)Cc1ccccc1 | inconclusive: 29.1 µM [cytotoxic, single point] | 
Cc1nc(SCc2ccc(O)c([N+](=O)[O-])c2)n[nH]1 | inconclusive: 29.1 µM [rising, single point] | 
CCC(C)c1ccccc1NC(=O)COC(=O)c1ccc(N2CCCC2)c([N+](=O)[O-])c1 (stereo not given) |  | inactive: -9.11%
CC1(C)CC(=O)C=C(c2ccc(-c3cccc(C(N)=O)c3)cc2)C1=O |  | inactive: -2.8%
Cc1oc(-c2ccoc2)nc1CN(CC1CCC(=O)N1)C(C)C (stereo not given) | inconclusive: 29.1 µM [rising, single point] | 
CCOc1cc(C(=O)N/N=C/c2cn(-c3ccccc3)nc2-c2cc3ccccc3o2)cc(OCC)c1OCC |  | inactive: 0%
COc1ccc(N2CCN(S(=O)(=O)CCNC(=O)C34CC5CC(CC(C5)C3)C4)CC2)cc1 | inconclusive: 0.0073 µM [cytotoxic, full curve, poor fit] | 
CCCc1nc2oc3c(NCCCN(C)C)ncnc3c2c2c1CCCC2 | inconclusive: 7.31 µM [cytotoxic, partial curve] | 
Cc1ccccc1OCc1nnc(SCCN2CCCC2)n1-c1ccccc1 | inconclusive: 8.2 µM [cytotoxic, partial curve] | 
Cc1cccc(N=C2C(=O)Nc3c(Cl)cccc32)c1 | inconclusive: 1.3 µM [rising, full curve, poor fit] | 
Cc1ccc(NC(=O)Nc2ccc3c(c2)OCO3)c(OC(F)F)c1 |  | inconclusive: -25.4%
CC(=O)N(Cc1ccccc1)Cc1cn(CCC#N)nc1-c1cccc([N+](=O)[O-])c1 |  | inactive: -1.51%
Cc1cn([C@H]2C[C@H](O)[C@@H](CNCc3cnc(N4CCOCC4)nc3)O2)c(=O)[nH]c1=O | inconclusive: 29.1 µM [rising, single point] | 
CCOC(=O)C1(C(F)(F)F)N=C(C(F)(F)F)Nc2ccc(F)cc21 (stereo not given) | inconclusive: 29.1 µM [rising, single point] | 
O=C(Nc1ccccc1)N(Cc1cccs1)C1CCCC1 | inconclusive: 23.1 µM [cytotoxic, single point] | 
Cc1[nH][nH]c(=O)c1C(c1ccc(-c2cccc(C(=O)O)c2)o1)c1c(C)[nH][nH]c1=O |  | inactive: 8.51%
CC(CCc1ccccc1)NC(=O)c1ccc(NC(=O)c2cccc(Br)c2)cc1 (stereo not given) | active: 2.06 µM | 
Cc1cccc(OCc2occc2C(=O)Nc2cccc(-n3cnnn3)c2)c1 |  | inactive: 18.2%
COC(=O)c1ccc2c(=O)n(-c3ccccc3F)c(=S)[nH]c2c1 | active: 18.4 µM | 
CC1(C)c2[nH]c3ccccc3c2C[C@H]2C(=O)N(Cc3ccccc3)C(=O)N21 |  | inactive: 0%

Single records (already shown):
Cc1[nH][nH]c(=O)c1C(c1ccc(-c2cccc(C(=O)O)c2)o1)c1c(C)[nH][nH]c1=O is listed as activity change, negative = cytotoxicity: inactive: 8.51%
CCN(CC)C(=O)c1sc2c(c1C)c(=O)n(Cc1ccccc1)c(=O)n2Cc1ccc(Cl)cc1 is listed as Potency: inconclusive: 13 µM [cytotoxic, partial curve, poor fit]

Next records.

Structure (SMILES) | Potency | activity change, negative = cytotoxicity
CCN(C(=O)CCn1cnc2onc(-c3ccc(F)cc3)c2c1=O)c1ccc(OC)cc1 |  | inactive: -22.4%
Cc1cccc(C)c1NC(=O)CNC(=O)CCC(=O)c1cccs1 |  | inactive: 7.89%
CCCC(C)(C)C(=O)N1CCC1(C)C(=O)Nc1cccc(OC)c1 (stereo not given) | inconclusive: 18.4 µM [cytotoxic, partial curve] | 
Cc1c(C(=O)OC(C)C)[nH]c2c1C(=O)CC(C)(C)C2 |  | inactive: -18.3%
O=C(Nc1cccc(F)c1)C1CCN(c2nnnn2-c2ccccc2)CC1 | inconclusive: 20.6 µM [cytotoxic, partial curve, poor fit] | 
CCOC(=O)C1CCCN(c2c(Nc3ccc(C)c(C)c3)c(=O)c2=O)C1 (stereo not given) | inconclusive: 29.1 µM [rising, single point] | 
CCCCOc1ccccc1C1NC(=O)NC(C)=C1C(=O)OCCOC (stereo not given) | inconclusive: 7.31 µM [cytotoxic, single point] | 
CCn1cc(C(=O)NC2CCCCCC2)c(=O)c2ccc(C)nc21 |  | inactive: -5.81%
Cc1ccc(Nc2nc(N)nc(CCl)n2)c(C)c1 | inconclusive: 29.1 µM [cytotoxic, single point] | 
O=C(O)c1ccccc1-c1ccccc1C(=O)NNc1ccccc1 |  | inactive: -11.3%
COCCNC(=O)[C@@]1(Cc2ccccc2)C=C[C@@H](C)N1C(C)=O | inconclusive: 3.66 µM [rising, full curve, poor fit] | 
CCn1cc(C(=O)NCc2ccccc2OC)c(=O)c2cc(S(=O)(=O)N3CCCCC3)ccc21 | inconclusive: 1.64 µM [cytotoxic, partial curve, poor fit] | 
CCC(C)c1ccc(-c2cc(C(=O)OCC(=O)Nc3cc(C)on3)c3ccccc3n2)cc1 (stereo not given) |  | inactive: 0%
Cc1cc(C)n2c(nc3ccccc32)c1C(=O)NCc1ccccc1 | inconclusive: 18.4 µM [cytotoxic, single point] | 
Cc1nc2ccccc2n1CC(=O)NCc1ccccc1 | active: 6.51 µM | 
CCc1ccc(/C=C2\SC(=S)N(CCCC(=O)Nc3nccs3)C2=O)cc1 | inconclusive: 2.91 µM [cytotoxic, partial curve, poor fit] | 
CCn1c(SCC(=O)N/N=C/C=C\c2ccccc2[N+](=O)[O-])nnc1-c1ccccc1 | inconclusive: 23.1 µM [cytotoxic, single point] | 
Cc1oc(-c2ccccc2)nc1CS(=O)CC(=O)N1CCc2ccccc2C1 (stereo not given) |  | inactive: -0.802%
O=S1(=O)CC(N2CCN(CCO)CC2)CN1Cc1ccc(F)cc1 (stereo not given) | inconclusive: 20.6 µM [rising, single point] | 
Cc1ncsc1CCOC(=O)c1ccc(Cl)cc1 | inconclusive: 29.1 µM [cytotoxic, single point] | 
O=C(CNS(=O)(=O)c1ccccc1)OCC(=O)c1cccc([N+](=O)[O-])c1 | inconclusive: 29.1 µM [rising, single point] | 
Fc1ccc(-c2cc3nc4c(c(N5CCOCC5)n3n2)CCCC4)cc1 | inconclusive: 3.66 µM [cytotoxic, full curve] | 
COc1ccc(CC(=O)OCC(=O)NCc2ccc(Cl)cc2)cc1 | inconclusive: 29.1 µM [rising, single point] | 
Cc1onc(-c2c(Cl)cccc2Cl)c1C(=O)N=S(C)(=O)c1ccccc1 (stereo not given) | inconclusive: 25.9 µM [cytotoxic, partial curve, poor fit] | 

3 compounds from above, sorted by length of the SMILES, ascending.
Structure (SMILES) | Potency | activity change, negative = cytotoxicity
Cc1cccc(C)c1NC(=O)CNC(=O)CCC(=O)c1cccs1 |  | inactive: 7.89%
COC(=O)c1ccc2c(=O)n(-c3ccccc3F)c(=S)[nH]c2c1 | active: 18.4 µM | 
Cc1oc(-c2ccccc2)nc1CS(=O)CC(=O)N1CCc2ccccc2C1 (stereo not given) |  | inactive: -0.802%

(further entries)

Structure (SMILES) | Potency | activity change, negative = cytotoxicity
Cc1ccc(S(=O)(=O)N2CCCOC2CNC(=O)C(=O)NCc2ccc3c(c2)OCO3)cc1 (stereo not given) | inconclusive: 23.1 µM [cytotoxic, single point] | 
Cn1c(CC(=O)Nc2ccccc2)nnc1SCC(=O)NC1CCCC1 |  | inactive: 0%
COCCNC(=O)c1sc2nc(-c3ccccc3)cn2c1C | active: 13 µM | 
COc1cc(N(C(=O)Cc2cccs2)C(C(=O)NC2CCCCC2)c2cccc(OC)c2OC)ccc1-n1cnnn1 (stereo not given) |  | inactive: -0.412%
CN(/N=C/c1ccncc1)c1cnc2ccccc2n1 | inconclusive: 8.2 µM [cytotoxic, partial curve] | 
S=C1Cc2ccccc2C(c2ccc(Cl)cc2)N1 (stereo not given) |  | inactive: 2.8%
O=C(CCN1C(=O)c2ccccc2S1(=O)=O)Nc1ccc(Cl)cc1 |  | inactive: -3.3%
Cc1cccc(C)c1N(CC(=O)N1CCCC1)S(C)(=O)=O |  | inactive: 0%
CCOC(=O)c1cc2c(C)n(-c3ccc(OCC)cc3)c(C)c2ccc1=O | active: 2.59 µM | 
O=C1CC(C(=O)N2CCN(S(=O)(=O)c3cccc(F)c3)CC2)CN1Cc1ccccc1Cl (stereo not given) | inconclusive: 14.6 µM [cytotoxic, partial curve, poor fit] | 
COC(=O)COc1cccc2c(=O)n(CC(=O)NCc3ccccc3)ccc12 | inconclusive: 4.61 µM [cytotoxic, full curve] | 
COc1ccc(-c2noc(CCC(=O)NCc3ccc(C)cc3)n2)cc1 |  | inactive: -8.23%
CC(SCc1ccccc1)C(=O)N/N=C/c1ccc(OCC(=O)NCc2ccco2)cc1 (stereo not given) | inconclusive: 18.4 µM [cytotoxic, single point] | 
O=C1NC(c2cccc([N+](=O)[O-])c2)Oc2ccccc21 (stereo not given) |  | inactive: 17.7%
Cc1cc(C)n(-c2ccc(C(=O)Nc3cccnc3Cl)cc2)n1 | inconclusive: 25.9 µM [cytotoxic, partial curve, poor fit] | 
COc1ccc(CNC(=O)CCc2c(C)nc3cc(-c4ccccc4OC)nn3c2C)cc1 | inconclusive: 7.31 µM [cytotoxic, partial curve] | 
O=[N+]([O-])c1cccc(S(=O)(=O)Nc2cccc(-c3ccc(N4CCCC4)nn3)c2)c1 | inconclusive: 18.4 µM [cytotoxic, single point] | 
O=C1c2ccccc2C(=O)c2c1cccc2N1CCCC1 | active: 14.6 µM | 
COc1ccc(S(=O)(=O)Nc2cccc3c2O[C@H](CN(C)S(=O)(=O)c2ccc(F)cc2)[C@H](C)CN([C@H](C)CO)C3=O)cc1 |  | inactive: -3.4%
COc1ccc(CC2C(=O)NC(C)C(=O)N(C)C3Cc4ccc(cc4)Oc4cc(ccc4O)CC(C(=O)NC(C)C(=O)NC(C)C(=O)N2C)N(C)C3=O)cc1 (stereo not given) |  | inactive: 7.25%
COc1ccc(CCNC(=O)c2cc3c(=O)n4ccccc4nc3n(CCCN3CCOCC3)c2=N)cc1OC |  | inactive: 8.27%
COc1ccccc1C(=O)NCCCNC(=O)c1cccnc1 |  | inactive: -14.4%
